Test results: PubChem BioAssay AID1439 (NMMLSC, 2008)
Several values for one entry are separate records, joined by “and”; a condition that tells them apart may be missing. Equal values may be shown once. Screen size: about 220,000 compounds; about 770 (0.35%) were called active. The shares of active, inactive and inconclusive entries below differ from those in the screen. No stated cut-off is given here; in the data, active means binding response below about 49% or above about 150%; inconclusive means no clear call, values can overlap the other calls; inactive means in between.

Sequences of proteins named here, by UniProt entry; tags and fusion partners are left off.
UniProt P09471, whole entry, looked up: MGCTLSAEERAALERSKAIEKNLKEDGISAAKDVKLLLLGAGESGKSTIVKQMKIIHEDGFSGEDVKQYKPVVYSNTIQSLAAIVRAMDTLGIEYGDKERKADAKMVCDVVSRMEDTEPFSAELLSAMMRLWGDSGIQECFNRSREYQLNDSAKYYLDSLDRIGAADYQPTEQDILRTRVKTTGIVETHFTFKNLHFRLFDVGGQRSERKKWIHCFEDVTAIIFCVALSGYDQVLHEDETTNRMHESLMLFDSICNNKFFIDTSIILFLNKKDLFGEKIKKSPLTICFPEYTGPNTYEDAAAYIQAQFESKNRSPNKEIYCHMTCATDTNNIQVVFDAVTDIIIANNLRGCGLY

The compounds below were run against Guanine nucleotide-binding protein G(o) subunit alpha (Homo sapiens) (UniProt P09471) (assay: RGS7-Galphao binding modulators, primary screen, biochemical, multiplexed bead flow cytometry (AID 1439;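 further: fluorescent Galphao held in activated GDP-AlF4 state binding bead-coupled RGS7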)). Conditions: at 10 µM, actives lie on both sides.

**Q.** With `CC(C)COc1ccc2[nH]c3c(c2c1)CCCC3=O` as the compound, how does the binding response (% of control) read?
**A.** Its binding response (% of control) is inactive: 103%.

**Q.** For `CC(C)c1ccc(NC(=O)COc2ccccn2)cc1`, which binding response (% of control) is on record?
**A.** Its binding response (% of control) is inconclusive: 109%.

**Q.** How did the binding response (% of control) turn out when `Nc1cc(=O)[nH]c(SCC(=O)N2N=C(c3ccc4ccccc4c3)CC2c2ccccc2)n1` (configuration not stated) was run?
**A.** Its binding response (% of control) is inconclusive: 105%.

**Q.** How did the binding response (% of control) turn out when `COc1ccc2[nH]c(=O)c(CNc3ccc(C)cc3C)cc2c1` was run?
**A.** Its binding response (% of control) is inconclusive: -419%.

**Q.** Which binding response (% of control) does the source give for `CCOc1ccc(C(=O)Nc2ccc(-c3nc4ccccc4[nH]3)cc2)cc1[N+](=O)[O-]` here?
**A.** The binding response (% of control) was inactive: 98.1%.

**Q.** For `CCN(Cc1ccccc1)C(=O)Cn1cc2c(n1)CCCC2`, which binding response (% of control) is on record?
**A.** The binding response (% of control) was inactive: 104%.

**Q.** For `Cc1cccc(NC2=C(Cl)C(=O)OC2NC(=O)c2ccccc2)c1` (configuration not stated), which binding response (% of control) is on record?
**A.** The binding response (% of control) was inactive: 102%.

**Q.** How did the binding response (% of control) turn out when `COC(=O)c1cccc(NC(=O)Nc2ccc(Cl)cc2)c1` was run?
**A.** The binding response (% of control) was inconclusive: 177%.

**Q.** With `Cc1ccc(NC(=O)c2cccnc2C(=O)Nc2ccc(C)cc2)cc1` as the compound, how does the binding response (% of control) read?
**A.** The binding response (% of control) was inactive: 106%.

**Q.** With `COc1ccc(S(=O)(=O)N(C)C)cc1NC(=O)COC(=O)c1nc2nccc(C)n2n1` as the compound, how does the binding response (% of control) read?
**A.** Its binding response (% of control) is inconclusive: 116%.

**Q.** For `Cc1cc(C)cc(NCCC#N)c1`, which binding response (% of control) is on record?
**A.** Its binding response (% of control) is inactive: 102% and inconclusive: 88%.

**Q.** Which binding response (% of control) does the source give for `CC(NC(=O)C1CC1)C(c1cccs1)N1CCOCC1` (configuration not stated) here?
**A.** The binding response (% of control) was inconclusive: 101%.

**Q.** How did the binding response (% of control) turn out when `Cc1ccc(C(=O)NC2(O)C(=O)c3ccccc3C2=O)cc1C` was run?
**A.** Its binding response (% of control) is inconclusive: 82%.

**Q.** `O=C(Nc1ccc(Cl)c(S(=O)(=O)N2CCOCC2)c1)c1ccccn1` was tested. Which binding response (% of control) did it give?
**A.** The binding response (% of control) was inconclusive: 83.8%.

**Q.** With `C=C(C)C(=O)O[C@H]1C/C(C)=C\C(=O)/C=C(\C)[C@H](O)[C@@H]2OC(=O)C(=C)[C@@H]21` as the compound, how does the binding response (% of control) read?
**A.** The binding response (% of control) was inconclusive: 94.1%.

**Q.** How did the binding response (% of control) turn out when `N#Cc1nnn(-c2ccc(Cl)cc2)c1N` was run?
**A.** Its binding response (% of control) is inconclusive: 84.5%.

**Q.** With `O=C(CCC(=O)Nc1ccc(Cl)cc1Cl)NNC(=O)[C@@H]1CCCC[C@@H]1C(=O)O` as the compound, how does the binding response (% of control) read?
**A.** The binding response (% of control) was inactive: 107%.

**Q.** `O=C(O)COc1ccccc1/C=C1\SC(=S)N(c2cccnc2)C1=O` was tested. Which binding response (% of control) did it give?
**A.** Its binding response (% of control) is inconclusive: 109%.

**Q.** With `COc1ccc(CCNC(=O)C2CC(=O)N(c3ccc(Br)cc3)C2)cc1OC` (configuration not stated) as the compound, how does the binding response (% of control) read?
**A.** The binding response (% of control) was inconclusive: 114%.

**Q.** For `COC1=C(C)C(O)=C(C(=O)/C=C/c2ccccc2)C(=O)C1(C)C`, which binding response (% of control) is on record?
**A.** Its binding response (% of control) is inconclusive: 97.7%.

**Q.** How did the binding response (% of control) turn out when `O=C(O)CC(CC(=O)Nc1ccc(N2CCOCC2)cc1)c1ccccc1` (configuration not stated) was run?
**A.** The binding response (% of control) was inconclusive: -31.6%.

**Q.** Which binding response (% of control) does the source give for `CCCCCc1cc(=O)oc2c(C(CCN(CC)CC)c3cc(OC)c(OC)c(OC)c3)c(OC)cc(OC)c12` (configuration not stated) here?
**A.** Its binding response (% of control) is inconclusive: 94.7%.

**Q.** `CCC(C)NC(=O)CNC(=S)N(Cc1ccccc1F)C1CCCCC1` (configuration not stated) was tested. Which binding response (% of control) did it give?
**A.** The binding response (% of control) was inconclusive: 108%.

**Q.** How did the binding response (% of control) turn out when `CCOc1ccc(N(CC(=O)Nc2ccc(C)cc2)S(=O)(=O)c2c(C)[nH]c(=O)[nH]c2=O)cc1` was run?
**A.** The binding response (% of control) was inconclusive: 104%.

**Q.** How did the binding response (% of control) turn out when `Cc1c(C)c(C)c(S(=O)(=O)N2CCSCC2)c(C)c1C` was run?
**A.** The binding response (% of control) was inconclusive: 155%.

**Q.** For `COc1cc2[nH]c(=O)n(Cc3ccc(C(=O)NC4CCCC4)cc3)c(=O)c2cc1OC`, which binding response (% of control) is on record?
**A.** The binding response (% of control) was inactive: 104%.

**Q.** Which binding response (% of control) does the source give for `Fc1cccc(/C=N/Nc2ccccn2)c1` here?
**A.** The binding response (% of control) was inconclusive: 102%.

**Q.** `Cc1ccc(C(=O)COC(=O)CNC(=O)c2ccc(Br)o2)cc1[N+](=O)[O-]` was tested. Which binding response (% of control) did it give?
**A.** The binding response (% of control) was inconclusive: 126%.

**Q.** `Cc1c(NCc2ccccc2O)c(=O)n(-c2ccccc2)n1C` was tested. Which binding response (% of control) did it give?
**A.** The binding response (% of control) was inconclusive: 137%.

**Q.** `Cc1c(C(=O)OCC(=O)N2c3ccccc3CC2C)oc2ccccc12` (configuration not stated) was tested. Which binding response (% of control) did it give?
**A.** Its binding response (% of control) is inactive: 135%.

**Q.** How did the binding response (% of control) turn out when `O=C(CNC(=O)c1ccccc1)Nc1cccc(C(F)(F)F)c1` was run?
**A.** The binding response (% of control) was active: 845% [activator].

**Q.** Which binding response (% of control) does the source give for `CC(=O)Nc1cccc(OCC(=O)NS(=O)(=O)c2ccc(Cl)cc2)c1` here?
**A.** The binding response (% of control) was inactive: 104%.

**Q.** `NC(=O)CSc1n[nH]c(-c2ccco2)n1` was tested. Which binding response (% of control) did it give?
**A.** The binding response (% of control) was inconclusive: 101%.

**Q.** How did the binding response (% of control) turn out when `O=C(COc1ccc(Cl)cc1)NCc1nnc(SCC(=O)Nc2ccc(F)cc2F)o1` was run?
**A.** Its binding response (% of control) is inactive: 99.3%.

**Q.** How did the binding response (% of control) turn out when `C/C(=N/NC(=O)c1sc(NS(=O)(=O)c2ccc(C)cc2)nc1C)c1sc(N)nc1C` was run?
**A.** The binding response (% of control) was inconclusive: 116%.

**Q.** `O=C(c1ccc2nc[nH]c2c1)N1CCc2ccccc2C1` was tested. Which binding response (% of control) did it give?
**A.** Its binding response (% of control) is inconclusive: 106%.

**Q.** `COCCn1c(N)c(C(=S)NC(=O)c2cccs2)c(=O)[nH]c1=O` was tested. Which binding response (% of control) did it give?
**A.** The binding response (% of control) was inconclusive: 87.8%.

**Q.** How did the binding response (% of control) turn out when `Fc1ccccc1C1c2cccn2CCN1C(=S)Nc1ccc(Br)cc1` (configuration not stated) was run?
**A.** Its binding response (% of control) is inconclusive: 104%.

**Q.** `CCSCc1nnc(SCC(=O)Nc2ccc(F)cc2)n1CC` was tested. Which binding response (% of control) did it give?
**A.** Its binding response (% of control) is inconclusive: 116%.

**Q.** For `C/C(=N\NC(=O)c1cccc([N+](=O)[O-])c1)c1ccco1`, which binding response (% of control) is on record?
**A.** The binding response (% of control) was inconclusive: 92%.

**Q.** How did the binding response (% of control) turn out when `CCc1cccc(C)c1NC(=S)N(CCN(C)C)C(C)c1ccco1` (configuration not stated) was run?
**A.** Its binding response (% of control) is inconclusive: 105%.

**Q.** `COC(=O)c1c(C)oc(C)c1S(=O)(=O)N1CCCC1` was tested. Which binding response (% of control) did it give?
**A.** The binding response (% of control) was inconclusive: 98.1%.

**Q.** With `CCOC(=O)/C=C/C(=O)N1CCN(C(=O)/C=C/C(=O)OCC)CC1` as the compound, how does the binding response (% of control) read?
**A.** Its binding response (% of control) is inconclusive: 89.5%.

**Q.** `COc1ccnc(N=CNOCc2cccc(C(F)(F)F)c2)c1C#N` was tested. Which binding response (% of control) did it give?
**A.** Its binding response (% of control) is inactive: 103%.

**Q.** With `CC(c1ccccc1)C1CC(=O)N(c2cc(Cl)ccn2)C1=O` (configuration not stated) as the compound, how does the binding response (% of control) read?
**A.** The binding response (% of control) was inconclusive: -151%.

**Q.** Which binding response (% of control) does the source give for `O=C(CSc1nnc(-c2ccco2)o1)NC(=O)C1COc2ccccc2O1` (configuration not stated) here?
**A.** The binding response (% of control) was inactive: 77%.

**Q.** `CC1CCC2(CC1)NC(=S)N(c1ccccc1)N2` (configuration not stated) was tested. Which binding response (% of control) did it give?
**A.** The binding response (% of control) was active: 171% [activator].

**Q.** With `Cc1ccc(-c2cc(C(=O)Nc3ccc(S(=O)(=O)Nc4onc(C)c4C)cc3)c3ccccc3n2)cc1` as the compound, how does the binding response (% of control) read?
**A.** The binding response (% of control) was inconclusive: 111%.

**Q.** How did the binding response (% of control) turn out when `Cc1c(C(=O)C(=O)N2c3ccccc3CC2C)c2ccccc2n1C` (configuration not stated) was run?
**A.** The binding response (% of control) was inactive: 97.3%.

**Q.** With `Cc1ccc2cc(CCNS(=O)(=O)c3ccc(F)cc3)c(=O)[nH]c2c1` as the compound, how does the binding response (% of control) read?
**A.** The binding response (% of control) was inactive: 94.7%.

**Q.** Which binding response (% of control) does the source give for `COC(=O)C1=C(C)N(c2ccc(C)cc2)/C(=C/c2ccc(O)cc2)C1=O` here?
**A.** Its binding response (% of control) is inactive: 104%.

**Q.** For `CCC(C)[C@H](NC(=O)NCc1ccc(S(N)(=O)=O)cc1)C(=O)O` (some centres not stated), which binding response (% of control) is on record?
**A.** Its binding response (% of control) is inconclusive: 87.7%.

**Q.** Which binding response (% of control) does the source give for `O=C(Nc1cccnc1)c1sc2cccc(F)c2c1Cl` here?
**A.** Its binding response (% of control) is inconclusive: 101%.

**Q.** With `Cc1cc(C)c2cc(C(=O)N(C)C3CCN(C)CC3)[nH]c2c1` as the compound, how does the binding response (% of control) read?
**A.** The binding response (% of control) was inconclusive: 101%.

**Q.** Which binding response (% of control) does the source give for `CC(=O)c1ccc(NC(=O)N2CCc3ccccc3C2)cc1` here?
**A.** The binding response (% of control) was inconclusive: 103%.

**Q.** For `COc1ccc(N2CCN(C(=O)CSc3nnc(NC(=O)C4CCC4)s3)CC2)cc1`, which binding response (% of control) is on record?
**A.** The binding response (% of control) was inactive: 103%.

**Q.** For `Cc1cccc(C)c1NC(=S)Nc1ccc(F)cc1`, which binding response (% of control) is on record?
**A.** Its binding response (% of control) is inconclusive: 79.5%.
